Test [1] has as its target T1, LAP-TULP3 full-length (GFP-TEV-S-tagged), T-REx-293 (human) (UniProt O75386).
T1 sequence: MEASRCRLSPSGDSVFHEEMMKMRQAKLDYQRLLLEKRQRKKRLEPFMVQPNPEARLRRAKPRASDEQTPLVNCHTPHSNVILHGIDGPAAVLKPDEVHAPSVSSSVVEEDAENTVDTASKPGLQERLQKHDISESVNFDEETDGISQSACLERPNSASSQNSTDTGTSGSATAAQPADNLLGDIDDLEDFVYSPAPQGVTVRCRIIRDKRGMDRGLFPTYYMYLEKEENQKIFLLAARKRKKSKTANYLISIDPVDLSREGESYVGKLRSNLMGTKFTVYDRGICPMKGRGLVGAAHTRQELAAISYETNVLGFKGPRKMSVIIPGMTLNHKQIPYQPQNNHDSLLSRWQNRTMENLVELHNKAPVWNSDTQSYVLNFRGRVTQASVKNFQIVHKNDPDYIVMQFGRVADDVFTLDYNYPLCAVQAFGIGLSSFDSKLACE
The experiment in a line: proximity labelling.

Protein sequences, listed by entry. Tags and fused reporters are not part of them. Lines headed by an entry give the natural chain unless they say otherwise; changes in a name come on top. Chains listed by the source or under a name are the forms on record and can include a tag or linker.
LAP tagged ARL13B V359A, T-REx 293 (Q3SXY8-1, form named): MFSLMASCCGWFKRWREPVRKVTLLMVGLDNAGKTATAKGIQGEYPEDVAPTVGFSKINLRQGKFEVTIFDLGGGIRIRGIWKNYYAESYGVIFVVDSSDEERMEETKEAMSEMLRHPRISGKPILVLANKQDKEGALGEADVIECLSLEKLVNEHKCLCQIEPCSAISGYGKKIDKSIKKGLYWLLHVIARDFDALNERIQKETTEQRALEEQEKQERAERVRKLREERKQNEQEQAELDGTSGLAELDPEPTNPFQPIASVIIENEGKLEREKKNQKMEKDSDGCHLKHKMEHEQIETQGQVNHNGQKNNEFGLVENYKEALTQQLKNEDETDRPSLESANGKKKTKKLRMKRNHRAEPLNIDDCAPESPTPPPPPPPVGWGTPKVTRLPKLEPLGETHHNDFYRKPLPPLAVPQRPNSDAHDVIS

Test [2] concerns the target T2, BirA* tagged TULP3, T-REx 293 (human) (UniProt O75386).
T2 sequence: T1 sequence
Put plainly: proximity labelling.

Results are given in words; binding and its absence hold for the method and conditions named. Binding seen in cells or lysates may run through a third protein. A yes stands for co-enrichment or nearness to the bait. Other partners may have been found. Where a sequence is shown, tags or fusion partners need not be part of it.

Turning to “BirA*-Flag tagged ARL13B, T-REx-293 (from UniProt Q3SXY8-1 1-428)”, the binding result in test [1] was “binds”.
On to “LAP tagged ARL13B V359A, T-REx 293 (from UniProt Q3SXY8-1 1-428)”, for which the binding entry in test [2] is “binds”.
The same measure, in the same setting: the entry for “LAP tagged ARL13B, T-REx 293 (from UniProt Q3SXY8-1 1-428)” is “binds”.

The record behind these values is article doi:10.1101/2021.05.25.445488.
